Reference: PMC12455437 (Angewandte Chemie (International Ed. in English), 2025)

Test: general procedure: Fmoc solid-phase peptide synthesis; TentaGel S TRT Cl (0.22 µmol/mg) and TentaGel R RAM (0.19 µmol/mg); HCTU/OxymaPure/NMM
Conditions: conjugation step

Row | Substance | conjugation yield
1 | 3-CGCATTCCTCTAGACCTTACT-5 | 60%
2 | 3-C*GCATTCCTCTAGACCTTACT-5 | 60%
